Measurements reported in PubChem BioAssay AID485353 (National Center for Advancing Translational Sciences (NCATS), 2010).
Out of some 330,000 compounds screened, about 610 (0.18%) were called active. Inconclusive means that the source gave no clear call. Such entries were picked first, then a sample of the others. Calls follow the shape of the full dose curve. Potencies beside an inconclusive call are fits to weak or partial responses and may not hold up.

Assay: qHTS of Yeast-based Assay for SARS-CoV PLP; also: nearly all actives have a fitted effect of over 55% in size; as to activity, positive = growth rescue: 0% is about no effect
Settings: S. cerevisiae expressing SARS-CoV PLpro; Potency: growth rescue; activity, positive = growth rescue: at 32.9 µM (top of the series)
Potency is read from the fitted curve at half-maximal effect.

Structure (SMILES)	Potency	activity, positive = growth rescue
NP(=O)(OCC(F)(F)F)Oc1ccc(Cl)cc1 (stereo not given)	inconclusive: 0.891 µM [activator, partial curve]	
CCn1c(-c2ccc(Cl)cc2)n[nH]c1=S	inconclusive: 10 µM [activator, partial curve]	
CN(C)N=Nc1ccc(S(=O)(=O)NC(=O)Cc2ccccc2)cc1	inconclusive: 20 µM [activator, single point]	
O=C(Nc1ccccc1)N1CCN(S(=O)(=O)c2ccccc2)CC1		inactive: 0.243%
COc1ccccc1N1CCN(C(=O)COc2ccc(Cl)cc2Br)CC1	inconclusive: 0.447 µM [activator, full curve]	
CC(CNC(=O)c1cc(COc2ccc3ncccc3c2)on1)c1ccccc1 (stereo not given)		inactive: 2.2%
O=C(CN1N=C(c2ccc(Cl)cc2)CCC1=O)NCCN1CCc2ccccc2C1	inconclusive: 11.2 µM [activator, single point]	
Cc1c(C(=O)NN)[nH]c2ccc([N+](=O)[O-])cc12		inactive: -1.42%
CN(CC(=O)Nc1cccc(F)c1)C(=O)CCNC(=O)c1ccc(Br)cc1	inconclusive: 0.447 µM [activator, full curve]	
C/C=C/c1ccc(OCCCNC(C)CC)c(OC)c1 (stereo not given)	active: 22.4 µM	
CC(=O)N1CCCc2cc(S(=O)(=O)N3CCCC(C(=O)N4CCN(c5cc(C)ccc5C)CC4)C3)ccc21 (stereo not given)		inactive: -30.2%
COc1ccc([C@]23Cc4cc(OC)c(OC)cc4C(O2)C2=C(CCCC2=O)O3)cc1	inconclusive: 3.98 µM [activator, single point]	
C=CCc1cc(C)ccc1OCCn1ccnc1		inactive: 2.53%
N#CCCN1CCN(S(=O)(=O)c2ccc(S(=O)(=O)N3CCCC3)cc2)CC1	inconclusive: 20 µM [activator, single point]	
CC1=N/C(=C\c2ccc(OC(C)C)cc2)C(=O)N1c1ccc(C(=O)O)cc1	inconclusive: 20 µM [activator, single point]	
COC(=O)Cc1ccc(NC(=S)NCCCN2CCOCC2)cc1		inactive: -0.467%
O=C(c1cc(S(=O)(=O)N2CCCCC2)ccc1F)N1CCCCC1		inactive: 6.29%
N#CC1=C(N)Oc2n[nH]c(-c3cccs3)c2C1c1cccnc1 (stereo not given)	inconclusive: 2.82 µM [activator, full curve]	
COc1cc(C(=O)N/N=C/C2CC=CCC2)cc(OC)c1OC (stereo not given)	inconclusive: 10 µM [activator, partial curve, poor fit]	
O=C(Nc1ccc(F)c(F)c1)c1ccccc1-c1ccccc1	active: 14.1 µM	
CCc1cccc(C)c1NC(=S)NCc1ccc2[nH]c(C)cc2c1	inconclusive: 22.4 µM [activator, single point]	
O=C(NC1CC1)C1CCN(S(=O)(=O)c2cc([N+](=O)[O-])ccc2Cl)CC1		inactive: 2.4%
COc1ccccc1C(=O)Nc1ccnn1C1CCN(Cc2cc(C)c(C)cc2C)CC1	inconclusive: 3.98 µM [activator, single point]	
O=C1CCCC2=C1C(c1ccccc1O)C1=C(CCCC1=O)O2	inconclusive: 11.2 µM [activator, single point]	

Structure (SMILES)	Potency	activity, positive = growth rescue
CC(=O)NC1C(=O)N(CCN2CCOCC2)c2ccc(Cl)cc21 (stereo not given)		inactive: -0.686%
COc1ccc(Nc2ncnc3ccccc23)c(OC)c1		inactive: 2.01%
CCCC/C(O)=C1\C(=O)CC(C)(C)CC1=Nc1ccccc1OC		inactive: -6.25%
CC(CCc1ccc(O)cc1)NC1C2CC3CC(C2)CC1C3 (stereo not given)	inconclusive: 12.6 µM [activator, partial curve]	
Cc1ccc(-n2ncc3c(=O)[nH]c(SCC(=O)N4CCCC4)nc32)cc1C	inconclusive: 3.55 µM [activator, single point]	
Cc1ccc(-c2nc3ccccn3c2NC(=O)c2ccco2)cc1	inconclusive: 2.51 µM [activator, single point]	
CCOc1ccc(CCNC(=O)c2ccc(CS(=O)Cc3ccc(Cl)cc3)o2)cc1 (stereo not given)	inconclusive: 17.8 µM [activator, single point]	
Cc1cc(C)n(CC(O)COc2cccc(OCC(O)Cn3nc(C)cc3C)c2)n1 (stereo not given)	inconclusive: 15.8 µM [activator, partial curve]	
COc1ccccc1/C=C1\SC(=S)N(CCC(=O)NC2=NCCS2)C1=O	active: 3.98 µM	
COc1cccc(CNC(=O)CN(C)S(=O)(=O)c2ccc3c(c2)c(=O)n(C)c(=O)n3C)c1	active: 3.55 µM	
COc1ccccc1NC(=O)c1cc(S(=O)(=O)NC2CCCC2)ccc1F	inconclusive: 3.98 µM [activator, single point]	
COc1ccc(-c2nn(-c3ccccc3)cc2/C=C/C(=O)OCC(=O)Nc2cccc(C#N)c2)cc1	inconclusive: 7.94 µM [activator, partial curve]	
O=S(=O)(/N=C(/Nc1ccc(Cl)c(S(=O)(=O)N2CCOCC2)c1)c1ccc(F)cc1)c1ccccc1	inconclusive: 15.8 µM [activator, single point]	
COc1ccc(-c2nnc(SCC(=O)Nc3ncc(C(F)(F)F)cc3Cl)n2CC(C)C)cc1		inactive: -5.43%
CCOc1ccc(C2/C(=C(/O)c3ccc4c(c3)CC(C)O4)C(=O)C(=O)N2CCCn2ccnc2)cc1OCC (stereo not given)	inconclusive: 20 µM [activator, single point]	
C#CCOCCOCCOCCNc1nc(N2CCN(C(=O)[C@H](CCC(=O)O)n3cc(C(N)Cc4ccc(O)cc4)nn3)CC2)nc(N2CCN(C(=O)[C@H](CCCCN)n3cc(C(N)[C@H](C)CC)nn3)CC2)n1 (stereo not given in full)		inactive: -2.75%
O=C(Cc1coc2ccc3ccccc3c12)NC1CCCc2ccccc21 (stereo not given)	inconclusive: 10 µM [activator, partial curve]	
CCOc1cc(/C=N/NC(=O)c2cccs2)ccc1OC(=O)N1CCOCC1		inactive: -5.52%
CCCCC(=O)NC(c1ccc(N(C)C)cc1)c1ccc2cccnc2c1O (stereo not given)	inconclusive: 4.47 µM [activator, full curve, poor fit]	
Cc1ccc2nc(NC(=O)C3CC3C)sc2c1 (stereo not given)		inactive: 2.87%
COCC(=O)N(Cc1cc2ccc(C)cc2[nH]c1=O)c1cccc(C)c1		inactive: 4.91%
O=C(O)CC1CCCC(c2ccccc2)C1=O (stereo not given)	inconclusive: 8.91 µM [activator, partial curve, poor fit]	
Cc1nn(CC(=O)NC2(C)CCS(=O)(=O)C2)c(C)c1S(=O)(=O)N(C)C (stereo not given)	inconclusive: 3.16 µM [activator, single point]	
COc1ccc(CN2CCNC(=O)C2CC(=O)N(C)CCCN2CCOCC2)cc1C (stereo not given)	inconclusive: 10 µM [activator, partial curve]	

Another view of three compounds above.
Structure (SMILES),Potency,"activity, positive = growth rescue"
N#CC1=C(N)Oc2n[nH]c(-c3cccs3)c2C1c1cccnc1 (stereo not given),"inconclusive: 2.82 µM [activator, full curve]",
COc1ccc(-c2nnc(SCC(=O)Nc3ncc(C(F)(F)F)cc3Cl)n2CC(C)C)cc1,,inactive: -5.43%
Cc1nn(CC(=O)NC2(C)CCS(=O)(=O)C2)c(C)c1S(=O)(=O)N(C)C (stereo not given),"inconclusive: 3.16 µM [activator, single point]",

(cont.)

Structure (SMILES)	Potency	activity, positive = growth rescue
Cc1ccc(Nc2ccc(S(=O)(=O)N3CCOCC3)cc2[N+](=O)[O-])c(C)c1		inactive: 12.5%
O=C(CNS(=O)(=O)c1cccs1)N1CCCC1	inconclusive: 11.2 µM [activator, single point]	
Cc1ccc(C#CC(C)(O)C(C)(C)C)cn1 (stereo not given)	inconclusive: 5.01 µM [activator, partial curve, poor fit]	
CCOC(=O)C1=NN(c2ccc([N+](=O)[O-])cc2)CC1C(=O)OC (stereo not given)	inconclusive: 0.447 µM [activator, full curve]	
O=C(C1=C(O)C(=O)N(CCCN2CCOCC2)C1c1ccncc1)c1cc2ccccc2o1 (stereo not given)	active: 12.6 µM	
CCN=C1SC(CC(=O)NCC)C(=O)N1CC (stereo not given)	inconclusive: 3.16 µM [activator, single point]	
CC(=O)Nc1ccc(NC(=O)Cc2sc(C)nc2-c2ccc(C)cc2)cc1	inconclusive: 3.16 µM [activator, single point]	
COc1cc2c(cc1OC)CN(S(=O)(=O)/C=C/c1ccccc1)CC2		inactive: 0.656%
COCCSc1nc(N)c2c3c(sc2n1)CN(C)CC3		inactive: 0.421%
CN(C)c1ccc(C(=O)OCC(=O)NCCNC(=O)COC(=O)c2ccc(N(C)C)cc2)cc1	inconclusive: 12.6 µM [activator, single point]	
Cc1ccccc1NC(=O)CSc1ccc(-c2ccccn2)nn1	inconclusive: 0.708 µM [activator, full curve]	
COc1ccccc1C(=O)NCC(=O)OC(C)C(=O)NC(=O)NC1CCCCC1 (stereo not given)	inconclusive: 3.98 µM [activator, single point]	
CC(OC(=O)c1ccc(Cl)c(S(=O)(=O)N2CCc3ccccc32)c1)C(=O)Nc1ncc(Cl)cc1Cl (stereo not given)	inconclusive: 2.51 µM [activator, partial curve, poor fit]	
O=C(NN1C(=O)c2cc(Br)ccc2NC1c1cc(Br)cc(Br)c1O)c1ccncc1 (stereo not given)	inconclusive: 20 µM [activator, partial curve]	
O=C(COc1nsnc1N1CCOCC1)N/N=C/c1ccccc1O	inconclusive: 20 µM [activator, single point]	
O=C(c1ccco1)N1CCN(C(=O)c2nn3cccnc3c2Cl)CC1	inconclusive: 20 µM [activator, single point]	
Cc1nn(Cc2ccccc2)c(C)c1/C=N/NC(=O)CNc1cccc(C(F)(F)F)c1	active: 11.2 µM	
CCOCC(=O)Nc1nc2ccc(C)cc2s1	inconclusive: 20 µM [activator, single point]	
COc1ccc(/C(O)=C2/C(=O)C(=O)N(CCCN(C)C)C2c2ccc(C)o2)cc1Cl (stereo not given)		inactive: 2.97%
O=C(c1ccc(S(=O)(=O)c2ccc(F)cc2)c([N+](=O)[O-])c1)N1CCCCCC1	inconclusive: 0.355 µM [activator, partial curve, poor fit]	
Clc1nc2sccn2c1/C=N/n1cnc2ccccc21	inconclusive: 3.16 µM [activator, single point]	
COc1cc(SC)ccc1C(=O)Nc1ccc2ncccc2c1		inactive: -15.1%
